# Test results published in the supplement of paper PMC12819154, “High-throughput peptide-centric local stability assay extends protein–ligand identification to membrane proteins, tissues and bacteria” (Nature Structural & Molecular Biology, 2025).
# Sequences of proteins named here, by UniProt entry; tags and fusion partners are left off. A change or cut given only in a name is not applied to a line headed by its entry.
# UniProt Q8CCE9: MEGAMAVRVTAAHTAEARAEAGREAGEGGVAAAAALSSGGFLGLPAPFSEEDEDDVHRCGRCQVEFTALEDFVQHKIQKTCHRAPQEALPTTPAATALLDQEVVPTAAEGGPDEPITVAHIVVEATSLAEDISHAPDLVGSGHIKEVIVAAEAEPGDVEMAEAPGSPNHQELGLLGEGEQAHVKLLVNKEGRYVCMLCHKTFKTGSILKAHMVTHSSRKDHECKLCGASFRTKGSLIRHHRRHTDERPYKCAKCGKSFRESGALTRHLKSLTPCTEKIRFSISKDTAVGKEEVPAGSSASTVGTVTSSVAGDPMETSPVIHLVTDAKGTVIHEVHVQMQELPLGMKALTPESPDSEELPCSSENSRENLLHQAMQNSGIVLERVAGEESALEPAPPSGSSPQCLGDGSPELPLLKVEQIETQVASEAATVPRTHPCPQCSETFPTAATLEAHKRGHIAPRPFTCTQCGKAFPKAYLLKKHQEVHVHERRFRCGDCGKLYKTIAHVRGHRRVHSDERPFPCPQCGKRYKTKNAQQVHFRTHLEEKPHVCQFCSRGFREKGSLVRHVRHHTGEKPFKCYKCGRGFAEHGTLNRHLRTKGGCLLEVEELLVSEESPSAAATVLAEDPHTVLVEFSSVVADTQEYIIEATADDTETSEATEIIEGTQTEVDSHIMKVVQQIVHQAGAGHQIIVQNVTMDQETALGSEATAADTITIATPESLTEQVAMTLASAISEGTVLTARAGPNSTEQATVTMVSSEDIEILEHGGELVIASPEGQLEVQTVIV
# UniProt Q8K0C4: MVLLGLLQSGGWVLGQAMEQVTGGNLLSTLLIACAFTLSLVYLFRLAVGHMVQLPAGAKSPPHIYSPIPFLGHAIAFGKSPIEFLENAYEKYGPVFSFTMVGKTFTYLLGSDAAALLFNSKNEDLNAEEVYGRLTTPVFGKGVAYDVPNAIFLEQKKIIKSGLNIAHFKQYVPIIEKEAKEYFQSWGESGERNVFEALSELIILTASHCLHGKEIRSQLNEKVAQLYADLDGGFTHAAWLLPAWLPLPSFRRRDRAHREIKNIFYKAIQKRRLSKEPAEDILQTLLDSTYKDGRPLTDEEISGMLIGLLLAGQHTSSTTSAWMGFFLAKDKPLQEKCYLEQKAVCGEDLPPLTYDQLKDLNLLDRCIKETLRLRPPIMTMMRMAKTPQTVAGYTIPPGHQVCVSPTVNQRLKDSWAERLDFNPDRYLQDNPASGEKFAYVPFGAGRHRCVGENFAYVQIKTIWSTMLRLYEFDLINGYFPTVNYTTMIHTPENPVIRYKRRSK
# UniProt Q8CDN6: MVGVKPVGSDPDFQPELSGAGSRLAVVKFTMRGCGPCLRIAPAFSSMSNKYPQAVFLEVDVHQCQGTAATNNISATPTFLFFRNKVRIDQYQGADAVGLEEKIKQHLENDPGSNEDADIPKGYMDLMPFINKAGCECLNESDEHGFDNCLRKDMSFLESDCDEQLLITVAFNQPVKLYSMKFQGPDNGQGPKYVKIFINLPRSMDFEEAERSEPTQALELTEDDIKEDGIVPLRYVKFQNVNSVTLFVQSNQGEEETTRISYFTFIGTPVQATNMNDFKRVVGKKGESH
# UniProt Q8CI51: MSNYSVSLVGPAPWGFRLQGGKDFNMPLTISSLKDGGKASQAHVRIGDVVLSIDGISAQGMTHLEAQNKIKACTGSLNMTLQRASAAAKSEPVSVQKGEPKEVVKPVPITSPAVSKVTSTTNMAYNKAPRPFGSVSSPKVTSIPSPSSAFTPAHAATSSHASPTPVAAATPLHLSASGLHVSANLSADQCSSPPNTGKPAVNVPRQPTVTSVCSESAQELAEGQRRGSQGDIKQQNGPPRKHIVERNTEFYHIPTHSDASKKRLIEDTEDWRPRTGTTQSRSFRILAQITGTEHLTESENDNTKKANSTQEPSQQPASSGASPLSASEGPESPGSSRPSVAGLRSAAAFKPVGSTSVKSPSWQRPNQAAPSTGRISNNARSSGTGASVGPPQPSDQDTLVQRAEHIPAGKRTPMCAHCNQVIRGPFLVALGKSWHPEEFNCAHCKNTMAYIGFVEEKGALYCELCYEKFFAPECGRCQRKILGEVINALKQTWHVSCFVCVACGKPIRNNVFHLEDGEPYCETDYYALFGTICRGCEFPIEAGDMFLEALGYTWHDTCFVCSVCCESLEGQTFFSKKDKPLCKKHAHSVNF
# UniProt Q8K072: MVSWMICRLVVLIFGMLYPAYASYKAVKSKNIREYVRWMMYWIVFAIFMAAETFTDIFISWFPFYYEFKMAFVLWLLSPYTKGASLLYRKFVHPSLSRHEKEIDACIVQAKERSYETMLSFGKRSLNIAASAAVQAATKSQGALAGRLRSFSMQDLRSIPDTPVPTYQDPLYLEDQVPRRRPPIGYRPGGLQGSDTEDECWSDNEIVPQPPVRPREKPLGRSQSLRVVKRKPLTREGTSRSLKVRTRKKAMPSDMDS
# Some of the results follow. Most values lie at the level of the controls, where differences are scatter.
# Compound: CN[C@@H]1C[C@H]2O[C@@](C)([C@@H]1OC)n1c3ccccc3c3c4c(c5c6ccccc6n2c5c31)C(=O)NC4 [staurosporine]
# Assay: log2 fold change of tryptic peptide abundance, ligand vs vehicle (limited proteolysis) (log2 ratio); higher = more trypsin-susceptible (destabilized)
# Details: ligand concentration: 20 uM; sample: mouse liver crude lysate; replicate design: treated separately
row,Target,log2 fold change
1,"UniProt Q8CCE9 (peptide sequence: VTAAHTAEAR, peptide start residue: 9)",0.194
2,"UniProt Q8K0C4 (peptide sequence: LDFNPDR, peptide start residue: 419)",-0.0861
3,"UniProt Q8CDN6 (peptide sequence: AGCECLNESDEHGFDNCLRK, peptide start residue: 133)",-0.332
4,"UniProt Q8CI51 (peptide sequence: VTSTTNMAYNKAPR, peptide start residue: 117)",0.147
5,"UniProt Q8K072 (peptide sequence: SYETMLSFGKR, peptide start residue: 114)",0.442
